Results as given in paper PMC5599684.
These are yes or no findings as the source states them, for the method shown. In cells and extracts the contact can be indirect. Some entries that bind do so weakly or less than the wild type. Where a sequence is shown, tags or fusion partners need not be part of it.

Molecular target: T1, ^GSTDpb11 (construct of Fig. S1A, not told) (S. cerevisiae) (UniProt P47027)
T1 sequence: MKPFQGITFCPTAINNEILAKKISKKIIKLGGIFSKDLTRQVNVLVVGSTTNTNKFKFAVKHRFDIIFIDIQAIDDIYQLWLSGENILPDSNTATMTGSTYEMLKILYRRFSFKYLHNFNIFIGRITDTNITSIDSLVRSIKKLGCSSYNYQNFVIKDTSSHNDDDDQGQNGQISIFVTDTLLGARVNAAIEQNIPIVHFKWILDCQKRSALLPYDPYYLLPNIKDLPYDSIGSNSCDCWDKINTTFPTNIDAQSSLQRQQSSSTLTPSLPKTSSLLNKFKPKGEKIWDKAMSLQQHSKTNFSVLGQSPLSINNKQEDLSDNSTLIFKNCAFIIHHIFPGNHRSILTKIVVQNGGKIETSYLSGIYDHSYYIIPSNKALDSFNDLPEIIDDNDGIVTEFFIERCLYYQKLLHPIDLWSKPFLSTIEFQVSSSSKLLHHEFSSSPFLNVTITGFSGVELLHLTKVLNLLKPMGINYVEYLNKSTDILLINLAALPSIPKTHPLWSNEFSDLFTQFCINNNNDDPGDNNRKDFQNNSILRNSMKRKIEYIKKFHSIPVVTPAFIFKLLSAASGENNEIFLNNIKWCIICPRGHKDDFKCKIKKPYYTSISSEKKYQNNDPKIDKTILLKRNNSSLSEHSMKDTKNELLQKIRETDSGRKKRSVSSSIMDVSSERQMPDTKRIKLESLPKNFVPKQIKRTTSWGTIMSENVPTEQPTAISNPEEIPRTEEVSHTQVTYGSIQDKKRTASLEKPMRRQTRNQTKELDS
Assay: pull-down; GST-Dpb11 immobilised on glutathione sepharose 4B, incubated 1 hour at 4 °C with ammonium sulphate-precipitated (57%) yeast cell extracts in 200 mM KOAc, 100 mM Hepes pH 7.6, 10% glycerol, 0.02% NP-40 with phosphatase and protease inhibitors; cells arrested in G1 (α-factor) or M phase (nocodazole), phleomycin- or mock-treated, or MMS-treated (Fig. S1A); only the target purified

B1: Rad9^9myc (protein, UniProt P14737 1-1309)
chain: MSGQLVQWKSSPDRVTQSAIKEALHSPLADGDMNEMNVPVDPLENKVNSTNIIEGSPKANPNPVKFMNTSEIFQKSLGLLDESPRHDDELNIEVGDNDRPNANILHNERTPDLDRIANFFKSNRTPGKENLLTKYQSSDLEDTPLMLRKKMTFQTPTDPLEQKTFKKLKSDTGFCYYGEQNDGEENASLEVTEADATFVQMAERSADNYDCALEGIVTPKRYKDELSKSGGMQDERVQKTQIMISAESPNSISSYDKNKITGNGRTTRNVNKVFNNNEDNIGAIEEKNPVKKKSENYSSDDLRERNNQIIQSNESEEINELEKNLNVSGRENDVNNLDIDINSAVSGTPSRNNAEEEMYSSESVNNREPSKKWIFRYSKDKTENNSNRSTQIVNNPRTQEMPLDSISIDTQPLSKSFNTETNNELETQIIVSSLSQGISAQKGPVFHSTGQTEEIKTQIINSPEQNALNATFETPVTLSRINFEPILEVPETSSPSKNTMSKPSNSSPIPKEKDTFNIHEREVETNNVFSNDIQNSSNAATRDDIIIAGSSDFNEQKEITDRIYLQLSGKQISDSGSDETERMSPNELDTKKESTIMSEVELTQELPEVEEQQDLQTSPKKLVVEEETLMEIKKSKGNSLQLHDDNKECNSDKQDGTESLDVALIEHESKGQSSELQKNLMQLFPSESQEIIQNRRTIKRRQKDTIEIGEEEENRSTKTSPTKHLKRNSDLDAASIKREPSCSITIQTGETGSGKDSKEQSYVFPEGIRTADNSFLSKDDIIFGNAVWCQYTWNYKFYPGILLEVDTNQDGCWIYFETGRSLTKDEDIYYLDIRIGDAVTFDGNEYVVVGLECRSHDLNIIRCIRGYDTVHLKKKNASGLLGKRTLIKALSSISLDLSEWAKRAKIILEDNEKNKGDAYRYLRHPIRGRKSMTNVLSPKKHTDDEKDINTHTEVYNNEIESSSEKKEIVKKDSRDALAEHAGAPSLLFSSGEIRTGNVFDKCIFVLTSLFENREELRQTIESQGGTVIESGFSTLFNFTHPLAKSLVNKGNTDNIRELALKLAWKPHSLFADCRFACLITKRHLRSLKYLETLALGWPTLHWKFISACIEKKRIVPHLIYQYLLPSGESFRLSLDSPSKGGIIKSNNIFSFYTQFLRGSNLRDQICGVKKMLNDYIVIVWGRSELDSFVKFAFACLSAGRMLTIDLPNIDVDDTEPLLNALDSLVPRIGSELSNRKLKFLIYANENNGKSQMKLLERLRSQISLKFKKFNYIFHTESKEWLIQTIINEDTGFHDDITDNDIYNTISEVR
binding: binds
